# Measurements published in PubChem BioAssay AID2685 (National Center for Advancing Translational Sciences (NCATS), 2010).
# Some of the results follow. Further columns of the screen follow, without active or inactive calls. Most of these compounds were active or inconclusive in the main read-out, so they are no random draw. The note in brackets gives the kind of curve behind each potency; many fits are weak.
# Experiment: qHTS Assay for Lipid Storage Modulators in Drosophila S3 Cells;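 for cell number change: cells counted by Cell Tracker Red CMTPX staining in the red channel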
# Conditions: BODIPY lipid droplet fluorescence, 18-24 h; for cell number change: measured here: cell count max response, cells fed with added oleic acid
# Procedure, shortened: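 Drosophila S3 cells got compounds at several concentrations plus oleic acid (400 uM solution). Laser-scanning cytometry with 488 nm excitation read lipid droplets at 500-530 nm and cells at 575-640 nm. Percent activity was relative to 20 uM Triacsin C.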
# [1] = measured here: lipid fluorescence (Fed channel) AC50, cells fed with added oleic acid
# [2] = measured here: cell number channel AC50, cells fed with added oleic acid
SMILES,cell number change [%],AC50 [1],AC50 [2]
Cc1cccc(NC(=O)c2ccc3nccnc3c2)n1,-18.5,"1.64 µM [falling, partial curve]",
CCCC(c1nnnn1CCOC)N(Cc1cc2cc(C)c(C)cc2[nH]c1=O)CC1CCCO1 (stereo not drawn),2.58,"0.00411 µM [rising, full curve, poor fit]",
O=C(CC(C(=O)O)c1ccc(Cl)cc1)c1ccccc1 (stereo not drawn),-54.5,"23.1 µM [falling, single point]","5.17 µM [falling, full curve]"
O=[N+]([O-])c1ccc(NC(=S)N2CCc3ccccc3C2)cc1,-16.5,,"1.46 µM [rising, full curve, poor fit]"
COc1ccc(N2CCN(S(=O)(=O)c3cn(C)cn3)CC2)cc1,22,"3.26 µM [rising, partial curve]",
CSCCC(NC(=O)c1ccccc1Cl)C(=O)N1CCC1 (stereo not drawn),2,,
CCOC(=O)N1CCN(c2nc(SC)nc3sc4c(c23)CC(C)(C)OC4)CC1,28.8,"4.61 µM [rising, single point]",
Cc1ccc(-c2nnc(Nc3ccccc3)c3ccccc23)cc1S(=O)(=O)NCC1CCCO1 (stereo not drawn),-38.1,,"14.6 µM [falling, partial curve, poor fit]"
COc1cccc(NC(=O)CN(C)C(=O)c2cccnc2Sc2ccc(C)c(C)c2)c1,10.4,"2.06 µM [falling, partial curve]",
CN1C(=O)C(N=Nc2ccccc2C(=O)O)N(C)C1=S (stereo not drawn),15.6,"4.11 µM [falling, single point]",
Cn1c(-c2cccc3ccccc23)n[nH]c1=S,17.7,"6.51 µM [falling, single point]",
COc1cc(/C=C/C(=O)OCC(=O)NC(=O)NC(C)C)ccc1OCC#N,22.8,"18.4 µM [rising, single point]",
Cc1cc(C)cc(NC(=O)CSc2nc3[nH]ncc3c(=O)[nH]2)c1,10.7,,
COc1ccc(NCC(=O)Nc2ccc(Cl)cc2C)c(OC)c1,48.7,"2.06 µM [rising, full curve]","1.64 µM [rising, full curve, poor fit]"
CCOc1ccc2nc(N3CCOCC3)nc(C)c2c1,89,"9.2 µM [rising, partial curve]","7.31 µM [rising, partial curve]"
Cc1ccc(N(C(=O)c2csnn2)C(C(=O)NC2CCCC2)c2ccccn2)c(C)c1 (stereo not drawn),6.67,"4.61 µM [rising, single point]",
CCCN(Cc1cc2cc(C)ccc2[nH]c1=O)C(=O)c1cccc(OC)c1,,"29.1 µM [falling, single point]",
CCCCN(C(=O)CSc1nnnn1C)C1CCS(=O)(=O)C1 (stereo not drawn),-6.46,,"2.91 µM [falling, single point]"
C/C(=N\NS(=O)(=O)c1ccc(C)cc1)c1ccc(Br)s1,-26.5,"14.6 µM [falling, partial curve]",
O=C(OCc1cnc(Cl)s1)c1c(F)cccc1F,29,"2.59 µM [rising, partial curve]",

SMILES,cell number change [%],AC50 [1],AC50 [2]
COc1ccc(NS(=O)(=O)c2ccc(S(=O)(=O)N(C)C)cc2)cc1S(N)(=O)=O,,"0.116 µM [rising, full curve, poor fit]",
COc1cc(/C=N/O)ccc1OCc1ccc([N+](=O)[O-])cc1,,"6.51 µM [falling, single point]",
CCCC(=O)Nc1ccc(C(=O)N/N=C/c2ccc([N+](=O)[O-])o2)cc1,,"7.31 µM [falling, full curve, poor fit]",
COc1ccccc1CN1CC(C(=O)NCCC2=CCCCC2)CCC1=O (stereo not drawn),,"29.1 µM [falling, single point]",
Cn1cccc1-c1cc(C(=O)O)[nH]n1,-31.5,"1.3 µM [falling, full curve]","18.4 µM [falling, single point]"
CCOc1ccccc1-n1cnc(C#N)c1N,-16.6,"0.794 µM [falling, full curve, poor fit]",
CC(C)N(Cc1ccccc1)C(=O)COC(=O)c1ccccc1SCC(=O)N1CCCC1,-0.623,"0.0231 µM [falling, full curve, poor fit]","3.26 µM [falling, single point]"
Cc1csc(SCC(=O)Nc2ccccc2)n1,14.5,,
Fc1ccc(-c2csc(Nc3ccccn3)n2)cc1,,"4.11 µM [rising, single point]",
CCCn1c(SCC(=O)NC)nnc1C(C)C,13.6,"1.46 µM [rising, partial curve]",
CCCSC(=S)c1c(C)[nH]n(-c2ccccc2)c1=O,-20,"10.3 µM [falling, partial curve]",
Cc1cc(C)n2[nH]c(=O)c(N=Nc3ccc(S(N)(=O)=O)cc3)c2n1,-9.24,"29.1 µM [falling, single point]",
Cc1c(CC(=O)O)c(=O)oc2c(C)c3occ(-c4ccc(F)cc4)c3cc12,,"29.1 µM [rising, single point]",
COc1cc2c(cc1OC)CN(CC(=O)Nc1ccc(C)c(S(=O)(=O)N3CCOCC3)c1)CC2,24.5,"18.4 µM [falling, single point]","0.82 µM [rising, partial curve, poor fit]"
CCOc1ccc(NC(=O)/C(=C\c2ccc(OC(C)=O)c(OC)c2)NC(C)=O)cc1,-4.04,"29.1 µM [rising, single point]",
CC12CC(NC(=O)N1c1cccc(C(=O)N3CCCCC3)c1)c1ccccc1O2 (stereo not drawn),-31.7,,"25.9 µM [falling, single point]"
CCCn1c(SCC(=O)NCc2ccccc2)nnc1-c1ccncc1,8.09,,
NC(=O)COC(=O)c1oc2ccccc2c1CSc1ccc(Cl)cc1,-25.7,"7.31 µM [rising, partial curve]",
CCc1nnc(NC(=O)CSc2nc3c(cc2C#N)CCC3)s1,-3.24,"1.46 µM [rising, partial curve]",
O=C(/C(=C/c1ccc(Cl)cc1)c1nc2ccccc2[nH]1)c1cccs1,-23.5,"29.1 µM [falling, single point]",

# One compound at a time, as listed above:
# `CC(C)N(Cc1ccccc1)C(=O)COC(=O)c1ccccc1SCC(=O)N1CCCC1` reads cell number change [%]: -0.623; AC50 [1]: 0.0231 µM [falling, full curve, poor fit]; AC50 [2]: 3.26 µM [falling, single point]
# `CCOc1ccccc1-n1cnc(C#N)c1N` reads cell number change [%]: -16.6; AC50 [1]: 0.794 µM [falling, full curve, poor fit]
# `Cn1c(-c2cccc3ccccc23)n[nH]c1=S` reads cell number change [%]: 17.7; AC50 [1]: 6.51 µM [falling, single point]

# Continued.

SMILES,cell number change [%],AC50 [1],AC50 [2]
CCOC(=O)C1CCN(C(=O)N(C)C)CC1,,,"6.51 µM [falling, single point]"
Nc1nc2ccc(S(=O)(=O)N3CCCCC3)cc2s1,-36.8,"18.4 µM [falling, partial curve]","0.00411 µM [falling, full curve, poor fit]"
CS(=O)(=O)N(CCc1ccccc1)CC(=O)Nc1ccc2c(c1)OCO2,-0.247,"0.651 µM [rising, single point]",
NC(=O)COC(=O)c1cc(=O)[nH]c2ccc(S(=O)(=O)Nc3ccc(F)cc3)cc12,5.83,,
O=C(N/N=C/c1ccccc1F)c1ccccc1OCc1ccccc1,-30.3,,"1.46 µM [falling, full curve, poor fit]"
Cc1cc(NC(=O)CSCc2ccc([N+](=O)[O-])cc2)no1,1.54,"0.92 µM [rising, full curve, poor fit]",
CCC(c1nnc(SCC(=O)Nc2ccc(NC(C)=O)cc2)n1Cc1ccccc1)N(C)C (stereo not drawn),-13.2,"0.00461 µM [falling, full curve, poor fit]",
O=C(CSc1nc2ccccc2o1)NCc1ccc2c(c1)OCO2,,"1.64 µM [rising, partial curve]",
Cc1ccc(CNS(=O)(=O)c2c(C)[nH]c(C)c2C(=O)N2CCCCC2)cc1,54.1,"0.116 µM [rising, full curve, poor fit]","29.1 µM [rising, single point]"
CCCCCC1CC(CC(C)C(=O)Nc2nncs2)C(=O)O1 (stereo not drawn),-23.4,"29.1 µM [falling, single point]",
C/C(=N\O)C1/C(=N/O)CC2C1C2(C)C (stereo not drawn),-49.5,,"20.6 µM [falling, partial curve, poor fit]"
CC(C(=O)OCC(=O)Nc1cccc(S(=O)(=O)N2CCOCC2)c1)N1C(=O)c2ccccc2C1=O (stereo not drawn),-24.1,"29.1 µM [falling, single point]",
CCCNC(=O)c1cn(CC)c2cc(N3CCN(C(=O)c4ccco4)CC3)c(F)cc2c1=O,,"8.2 µM [falling, partial curve]",
O=c1[nH]c2ccccc2n1CCC1CCCCC1,-93.9,,"32.6 µM [falling, partial curve]"
CCCOc1cccc(C(=O)Nc2cc(NC(=O)c3ccco3)ccc2OC)c1,,,"0.00411 µM [rising, full curve, poor fit]"
OC(COc1ccccc1)CN1C2=NCCCN2c2ccccc21 (stereo not drawn),20.6,"29.1 µM [rising, single point]",
CSCCC(NC(=O)COc1ccccc1)C(=O)N1CCN(c2ccccc2Cl)CC1 (stereo not drawn),40.8,"2.91 µM [rising, partial curve]","0.00651 µM [rising, full curve, poor fit]"
CCOc1ccc(C(=O)OC(C)CN2CCCCC2)cc1 (stereo not drawn),21.1,,"5.17 µM [rising, partial curve, poor fit]"
CC(C)(C)n1cc(S(=O)(=O)c2ccccc2)[nH]c1=O,21,"0.0231 µM [falling, full curve, poor fit]",
Cc1cc(C)nc(N/N=C/c2ccco2)n1,24.4,"29.1 µM [falling, single point]",
